Assay results reported in the supplement of paper PMC10849652.
This is one part of the list. Residues, ends and D or L forms follow the SMILES beside them. *: point of attachment. Cbz = O=C(OCc1ccccc1)*

Amino acid sequences for entries named in this document (tags omitted). A change or cut given only in a name is not applied to a line headed by its entry.
UniProt Q9UBS4: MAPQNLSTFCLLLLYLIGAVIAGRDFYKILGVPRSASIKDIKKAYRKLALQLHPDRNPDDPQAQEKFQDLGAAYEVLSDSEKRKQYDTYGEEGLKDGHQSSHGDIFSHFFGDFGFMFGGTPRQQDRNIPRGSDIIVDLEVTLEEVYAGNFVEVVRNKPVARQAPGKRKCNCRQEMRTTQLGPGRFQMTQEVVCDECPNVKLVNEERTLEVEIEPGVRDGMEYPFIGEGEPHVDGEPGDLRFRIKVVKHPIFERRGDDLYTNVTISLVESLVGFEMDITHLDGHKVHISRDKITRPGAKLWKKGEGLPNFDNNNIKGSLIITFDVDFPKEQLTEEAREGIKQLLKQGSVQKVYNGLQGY
UniProt Q9BVJ7: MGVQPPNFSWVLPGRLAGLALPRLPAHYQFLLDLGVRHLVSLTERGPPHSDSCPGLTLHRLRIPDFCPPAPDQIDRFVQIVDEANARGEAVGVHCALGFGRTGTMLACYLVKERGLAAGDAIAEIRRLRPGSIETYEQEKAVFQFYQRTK
UniProt O75521: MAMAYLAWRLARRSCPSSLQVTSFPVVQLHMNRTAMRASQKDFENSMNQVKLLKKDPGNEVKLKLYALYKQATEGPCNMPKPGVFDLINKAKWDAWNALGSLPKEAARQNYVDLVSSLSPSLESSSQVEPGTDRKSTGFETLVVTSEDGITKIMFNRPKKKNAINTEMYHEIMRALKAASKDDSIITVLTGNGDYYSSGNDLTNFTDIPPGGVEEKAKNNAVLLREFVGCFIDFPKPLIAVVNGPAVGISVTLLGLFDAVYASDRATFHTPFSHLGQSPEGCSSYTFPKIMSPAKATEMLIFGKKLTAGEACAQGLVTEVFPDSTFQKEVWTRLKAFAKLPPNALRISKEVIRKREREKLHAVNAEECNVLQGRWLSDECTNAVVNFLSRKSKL
UniProt Q8IXB1: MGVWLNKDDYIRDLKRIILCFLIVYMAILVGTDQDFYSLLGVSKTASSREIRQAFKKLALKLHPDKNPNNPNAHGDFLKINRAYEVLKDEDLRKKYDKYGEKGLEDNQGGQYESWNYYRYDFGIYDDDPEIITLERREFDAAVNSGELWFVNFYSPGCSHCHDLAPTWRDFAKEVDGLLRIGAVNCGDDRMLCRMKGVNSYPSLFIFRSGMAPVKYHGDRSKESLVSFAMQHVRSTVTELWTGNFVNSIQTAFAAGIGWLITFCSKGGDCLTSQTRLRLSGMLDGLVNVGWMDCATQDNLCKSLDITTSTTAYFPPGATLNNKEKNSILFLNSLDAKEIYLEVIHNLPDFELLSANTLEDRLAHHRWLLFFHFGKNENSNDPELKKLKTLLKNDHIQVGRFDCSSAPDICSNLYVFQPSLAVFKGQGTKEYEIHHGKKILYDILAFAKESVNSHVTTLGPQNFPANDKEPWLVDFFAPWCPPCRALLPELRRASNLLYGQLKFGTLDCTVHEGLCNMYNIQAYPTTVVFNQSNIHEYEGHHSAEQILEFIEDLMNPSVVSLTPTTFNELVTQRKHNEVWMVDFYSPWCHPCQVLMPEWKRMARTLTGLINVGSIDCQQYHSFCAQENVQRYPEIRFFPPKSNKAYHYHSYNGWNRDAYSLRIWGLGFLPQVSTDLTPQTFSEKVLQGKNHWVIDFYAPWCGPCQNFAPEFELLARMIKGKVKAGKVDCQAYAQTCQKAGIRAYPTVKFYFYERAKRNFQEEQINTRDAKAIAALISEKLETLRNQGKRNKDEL
UniProt Q99543: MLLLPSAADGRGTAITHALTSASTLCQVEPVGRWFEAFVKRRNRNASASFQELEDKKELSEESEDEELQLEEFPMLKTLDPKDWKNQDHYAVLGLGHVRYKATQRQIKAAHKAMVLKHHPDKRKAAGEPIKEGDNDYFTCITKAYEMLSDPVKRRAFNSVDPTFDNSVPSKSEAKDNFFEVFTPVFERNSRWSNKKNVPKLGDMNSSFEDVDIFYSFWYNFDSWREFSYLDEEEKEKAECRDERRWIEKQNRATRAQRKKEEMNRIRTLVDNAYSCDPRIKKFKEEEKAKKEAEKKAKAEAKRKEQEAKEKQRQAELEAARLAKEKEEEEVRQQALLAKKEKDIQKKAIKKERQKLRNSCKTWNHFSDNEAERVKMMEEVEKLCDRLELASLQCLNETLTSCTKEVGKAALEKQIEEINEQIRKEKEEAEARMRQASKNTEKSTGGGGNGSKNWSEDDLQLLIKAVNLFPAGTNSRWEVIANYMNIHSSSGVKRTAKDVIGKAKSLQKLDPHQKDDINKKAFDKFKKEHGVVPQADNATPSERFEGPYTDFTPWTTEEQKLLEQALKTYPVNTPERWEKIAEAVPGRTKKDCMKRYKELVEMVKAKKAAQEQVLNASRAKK
UniProt Q9NZJ0: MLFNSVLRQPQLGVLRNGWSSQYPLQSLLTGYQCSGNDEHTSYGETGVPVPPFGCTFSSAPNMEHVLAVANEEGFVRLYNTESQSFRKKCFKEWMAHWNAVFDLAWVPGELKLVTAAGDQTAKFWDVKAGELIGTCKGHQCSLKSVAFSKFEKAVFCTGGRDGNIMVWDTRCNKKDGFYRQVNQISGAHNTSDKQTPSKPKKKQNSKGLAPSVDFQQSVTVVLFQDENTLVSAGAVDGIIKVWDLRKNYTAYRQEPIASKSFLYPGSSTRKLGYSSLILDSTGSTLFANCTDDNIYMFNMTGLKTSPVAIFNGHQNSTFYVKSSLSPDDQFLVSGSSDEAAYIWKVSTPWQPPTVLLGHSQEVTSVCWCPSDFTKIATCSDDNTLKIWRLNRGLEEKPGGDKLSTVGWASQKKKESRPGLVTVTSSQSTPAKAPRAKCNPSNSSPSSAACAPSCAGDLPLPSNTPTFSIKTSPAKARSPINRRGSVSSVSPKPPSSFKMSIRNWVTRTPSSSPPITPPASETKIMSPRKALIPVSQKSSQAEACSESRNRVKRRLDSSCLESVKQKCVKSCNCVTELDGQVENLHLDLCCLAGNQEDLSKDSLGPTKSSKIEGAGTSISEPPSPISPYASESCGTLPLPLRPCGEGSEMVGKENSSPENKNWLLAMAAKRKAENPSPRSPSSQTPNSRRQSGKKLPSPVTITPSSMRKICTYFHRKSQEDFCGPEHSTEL
UniProt Q9UKB3: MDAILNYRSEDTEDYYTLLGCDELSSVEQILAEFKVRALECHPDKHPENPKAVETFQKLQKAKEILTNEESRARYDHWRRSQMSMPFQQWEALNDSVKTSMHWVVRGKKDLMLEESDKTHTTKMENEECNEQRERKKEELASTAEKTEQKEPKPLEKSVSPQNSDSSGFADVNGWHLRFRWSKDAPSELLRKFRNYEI
UniProt Q14919: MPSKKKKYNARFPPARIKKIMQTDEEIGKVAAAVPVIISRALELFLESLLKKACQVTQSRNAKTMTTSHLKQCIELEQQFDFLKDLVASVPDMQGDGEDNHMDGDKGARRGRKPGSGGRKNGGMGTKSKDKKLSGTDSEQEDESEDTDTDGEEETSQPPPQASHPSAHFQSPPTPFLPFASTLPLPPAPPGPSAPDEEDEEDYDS
UniProt Q9NVM6: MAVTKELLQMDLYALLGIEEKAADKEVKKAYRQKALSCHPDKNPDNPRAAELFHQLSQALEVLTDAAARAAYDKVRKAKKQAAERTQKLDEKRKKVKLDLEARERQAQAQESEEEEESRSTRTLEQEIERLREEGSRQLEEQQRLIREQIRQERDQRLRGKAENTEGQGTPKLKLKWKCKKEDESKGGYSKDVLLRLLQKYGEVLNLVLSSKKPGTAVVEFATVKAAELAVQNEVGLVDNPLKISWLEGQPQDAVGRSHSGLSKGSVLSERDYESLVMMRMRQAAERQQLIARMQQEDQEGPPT
UniProt O00559: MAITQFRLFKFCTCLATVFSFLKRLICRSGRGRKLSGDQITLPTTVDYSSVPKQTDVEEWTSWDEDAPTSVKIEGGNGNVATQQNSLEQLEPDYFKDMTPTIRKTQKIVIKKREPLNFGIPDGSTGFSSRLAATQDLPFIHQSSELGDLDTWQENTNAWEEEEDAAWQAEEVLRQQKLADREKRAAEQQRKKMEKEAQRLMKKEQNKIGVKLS
UniProt Q8TBM8: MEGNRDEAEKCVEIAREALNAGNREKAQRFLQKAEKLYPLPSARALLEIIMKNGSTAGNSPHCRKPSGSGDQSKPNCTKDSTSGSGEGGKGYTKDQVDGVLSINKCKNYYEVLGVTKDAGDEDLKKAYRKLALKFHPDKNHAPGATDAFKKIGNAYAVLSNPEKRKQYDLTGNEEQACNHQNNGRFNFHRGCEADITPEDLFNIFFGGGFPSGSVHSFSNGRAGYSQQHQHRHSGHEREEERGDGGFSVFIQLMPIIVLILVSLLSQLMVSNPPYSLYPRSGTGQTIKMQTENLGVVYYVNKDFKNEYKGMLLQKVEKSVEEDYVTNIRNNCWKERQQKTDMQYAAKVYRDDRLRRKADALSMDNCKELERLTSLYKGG
UniProt O75165, whole entry, looked up: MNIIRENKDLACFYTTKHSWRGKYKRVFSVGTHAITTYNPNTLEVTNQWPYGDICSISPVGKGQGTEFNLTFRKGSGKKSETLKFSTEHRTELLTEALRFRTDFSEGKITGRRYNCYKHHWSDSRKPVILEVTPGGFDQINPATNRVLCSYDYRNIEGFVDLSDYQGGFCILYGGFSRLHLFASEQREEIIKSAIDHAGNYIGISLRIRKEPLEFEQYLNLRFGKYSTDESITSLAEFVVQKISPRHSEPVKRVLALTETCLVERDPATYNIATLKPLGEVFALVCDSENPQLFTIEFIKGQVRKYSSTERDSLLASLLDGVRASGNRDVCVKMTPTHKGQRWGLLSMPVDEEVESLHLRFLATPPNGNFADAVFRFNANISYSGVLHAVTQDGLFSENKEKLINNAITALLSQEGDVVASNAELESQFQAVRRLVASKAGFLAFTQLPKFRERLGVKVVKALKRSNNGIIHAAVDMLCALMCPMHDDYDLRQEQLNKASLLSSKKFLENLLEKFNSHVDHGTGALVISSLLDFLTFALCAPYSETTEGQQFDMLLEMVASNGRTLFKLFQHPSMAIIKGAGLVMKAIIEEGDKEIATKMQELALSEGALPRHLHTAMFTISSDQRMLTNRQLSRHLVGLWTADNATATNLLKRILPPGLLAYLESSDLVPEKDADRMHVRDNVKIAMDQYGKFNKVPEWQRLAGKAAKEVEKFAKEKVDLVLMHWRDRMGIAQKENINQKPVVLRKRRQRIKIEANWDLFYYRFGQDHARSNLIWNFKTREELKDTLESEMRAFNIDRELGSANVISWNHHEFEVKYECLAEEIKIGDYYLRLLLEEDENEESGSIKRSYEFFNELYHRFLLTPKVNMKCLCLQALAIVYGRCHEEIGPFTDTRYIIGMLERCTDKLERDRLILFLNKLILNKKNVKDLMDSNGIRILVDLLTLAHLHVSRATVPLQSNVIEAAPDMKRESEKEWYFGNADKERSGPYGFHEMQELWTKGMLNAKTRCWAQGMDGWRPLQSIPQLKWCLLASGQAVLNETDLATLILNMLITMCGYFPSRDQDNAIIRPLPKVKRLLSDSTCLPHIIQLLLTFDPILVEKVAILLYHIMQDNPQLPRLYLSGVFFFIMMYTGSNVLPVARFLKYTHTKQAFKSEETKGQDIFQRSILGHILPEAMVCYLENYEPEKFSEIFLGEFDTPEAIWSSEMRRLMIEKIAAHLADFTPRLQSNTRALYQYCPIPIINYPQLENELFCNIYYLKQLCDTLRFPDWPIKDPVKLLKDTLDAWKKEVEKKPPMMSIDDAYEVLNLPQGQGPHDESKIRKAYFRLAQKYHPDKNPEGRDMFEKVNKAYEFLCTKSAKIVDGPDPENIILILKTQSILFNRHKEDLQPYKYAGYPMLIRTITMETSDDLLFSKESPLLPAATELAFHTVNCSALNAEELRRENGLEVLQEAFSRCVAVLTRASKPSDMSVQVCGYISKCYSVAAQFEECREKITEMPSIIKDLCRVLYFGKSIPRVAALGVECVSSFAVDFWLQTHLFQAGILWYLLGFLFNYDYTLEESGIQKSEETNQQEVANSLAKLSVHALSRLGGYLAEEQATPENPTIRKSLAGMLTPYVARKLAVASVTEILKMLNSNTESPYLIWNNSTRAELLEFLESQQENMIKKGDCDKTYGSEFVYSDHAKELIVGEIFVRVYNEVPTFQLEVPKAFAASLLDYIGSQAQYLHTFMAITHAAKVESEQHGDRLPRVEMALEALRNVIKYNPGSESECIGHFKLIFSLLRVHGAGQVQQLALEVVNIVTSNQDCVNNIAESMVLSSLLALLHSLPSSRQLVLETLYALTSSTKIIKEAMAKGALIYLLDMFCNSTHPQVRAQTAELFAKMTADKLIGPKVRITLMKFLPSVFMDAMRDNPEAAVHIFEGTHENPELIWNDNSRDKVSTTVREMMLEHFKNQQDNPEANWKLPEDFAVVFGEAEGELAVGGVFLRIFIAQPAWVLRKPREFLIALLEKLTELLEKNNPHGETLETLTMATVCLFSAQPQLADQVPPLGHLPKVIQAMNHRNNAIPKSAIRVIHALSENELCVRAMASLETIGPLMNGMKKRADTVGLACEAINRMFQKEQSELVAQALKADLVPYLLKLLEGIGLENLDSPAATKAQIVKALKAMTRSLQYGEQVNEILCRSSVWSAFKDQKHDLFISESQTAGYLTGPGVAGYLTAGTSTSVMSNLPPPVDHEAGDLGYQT

Key:
Test in all cases: log2 fold change, soluble protein after heating vs DMSO (PISA); higher = thermal stabilisation; K562 cells, 10 uM, 30 min; active = over 0.2 and 3.5 SD of the protein, either way, in both replicates (recomputed)
IRAK-1-4 Inhibitor I = compound: C1COCCN1CCN2C3=CC=CC=C3N=C2NC(=O)C4=CC(=CC=C4)[N+](=O)[O-] [IRAK-1-4 Inhibitor I]
Method in brief: (§1)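 Quantification of soluble protein used TMTpro 16plex LC-MS/MS, with channel sums equalised. Samples were the supernatant after 21,000xg for 90 min of pooled aliquots from K562 cells (2×10^6 cells/mL) treated with 10 μM compound for 30 min, heated for 3 min over 48°C-58°C, and extracted in PBS with 0.5% NP-40 at 4°C. Values, from duplicates, describe thermal stability against control samples on a log2 fold-change scale.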

ibrutinib = compound: C=CC(=O)N1CCC[C@@H](n2nc(-c3ccc(Oc4ccccc4)cc3)c3c(N)ncnc32)C1 [ibrutinib]
Method in brief: as §1

[1] = compound: CC(=O)c1cnc2ccc(-c3cc(Cl)c(O)c(Cl)c3)nc2c1N[C@H]1CC[C@H](CN(C)C)CC1
Method in brief: as §1

ralimetinib = compound: CC(C)(C)Cn1c(N)nc2ccc(-c3[nH]c(C(C)(C)C)nc3-c3ccc(F)cc3)nc21 [ralimetinib]
Method in brief: as §1

[2] = compound: CC(C)(O)CC(=O)NCCn1ccc2ncnc(Nc3ccc(Oc4cccc(C(F)(F)F)c4)c(Cl)c3)c21
Method in brief: as §1

[3] = compound: CC(C)C1=C2N=C(C=C(N2N=C1)NCC3=CC=CC=C3)NCCCCCCN
Method in brief: as §1

[4] = compound: CC(C)C[C@@H](C=O)NC(=O)[C@H](CC(C)C)NC(=O)[C@H](CC(C)C)NC(=O)OCc1ccccc1
Method in brief: as §1

pinometostat = compound: CC(C)N(C[C@H]1O[C@@H](n2cnc3c(N)ncnc32)[C@H](O)[C@@H]1O)[C@H]1C[C@@H](CCc2nc3cc(C(C)(C)C)ccc3[nH]2)C1 [pinometostat]
Method in brief: as §1

[5] = compound: CC1=C(C(CC(=O)N1)C2=CC=C(C=C2)C(F)(F)F)C(=O)NC3=C(C=C4C(=C3)C=NN4)F
Method in brief: as §1

[6] = compound: CC1=C(C2=C(C=C1)C(=O)C3=CC=CC=C3N2CCCN)C
Method in brief: as §1

[7] = compound: CC1=C(C=C(C=C1)NC(=O)C2=CC(=CC=C2)C(C)(C)C#N)NC3=CC4=C(C=C3)N=CN(C4=O)C
Method in brief: as §1

[8] = compound: CC1=C(C=C(C=C1)NC(=O)C2=CC(=CC=C2)N(C)C)NC(=O)C3=CC=C(C=C3)O
Method in brief: as §1

[9] = compound: CC1=CC=C(C=C1)SC2=C3C=C(SC3=CN=C2)C(=O)N
Method in brief: as §1

[10] = compound: CC1=NC(=CC=C1)C2=C(N=C(N2)C(C)(C)C)C3=CC4=NC=CN=C4C=C3
Method in brief: as §1

Nexturastat A = compound: CCCCN(Cc1ccc(C(=O)NO)cc1)C(=O)Nc1ccccc1 [Nexturastat A]
Method in brief: as §1

vemurafenib = compound: CCCS(=O)(=O)Nc1ccc(F)c(C(=O)c2c[nH]c3ncc(-c4ccc(Cl)cc4)cc23)c1F [vemurafenib]
Method in brief: as §1

[11] = compound: CCCS(=O)(=O)Nc1ccc(F)c(C(=O)c2c[nH]c3ncc(Cl)cc23)c1F
Method in brief: as §1

[12] = compound: CCCc1cc(C)[nH]c(=O)c1CNC(=O)c1cc(-c2ccnc(N3CCN(C)CC3)c2)cc2c1cnn2C(C)C
Method in brief: as §1

givinostat = compound: CCN(CC)Cc1ccc2cc(COC(=O)Nc3ccc(C(=O)NO)cc3)ccc2c1 [givinostat]
Method in brief: as §1

barasertib = compound: CCN(CCCOc1ccc2c(Nc3cc(CC(=O)Nc4cccc(F)c4)[nH]n3)ncnc2c1)CCOP(=O)(O)O [barasertib]
Method in brief: as §1

Measured: log2 fold change

DNAJB11 (UniProt Q9UBS4)
inactive: IRAK-1-4 Inhibitor I 0.008 | ibrutinib -0.001 | [1] -0.017 | ralimetinib -0.027 | [2] 0.046 | [3] -0.022 | [4] -0.024 | pinometostat -0.01 | [5] -0.015 | [6] -0.013 | [7] -0.052 | [8] -0.001 | [9] -0.019 | [10] -0.012 | Nexturastat A -0.013 | vemurafenib 0.008 | [11] -0.006 | [12] -0.029 | givinostat -0.001 | barasertib 0.007

DPY19L3 (UniProt Q6ZPD9)
inactive: IRAK-1-4 Inhibitor I -0.233 | ibrutinib -0.08 | [1] 0.042 | ralimetinib -0.117 | [2] -0.025 | [3] -0.036 | [4] 0.252 | pinometostat 0.009 | [5] 0.014 | [6] 0.081 | [7] 0.014 | [8] 0.08 | [9] -0.05 | [10] -0.096 | Nexturastat A 0.039 | vemurafenib 0.037 | [11] -0.129 | [12] -0.089 | givinostat 0.014 | barasertib 0.035

DUSP23 (UniProt Q9BVJ7)
inactive: IRAK-1-4 Inhibitor I 0.033 | ibrutinib 0.025 | [1] -0.03 | ralimetinib 0.004 | [2] -0.059 | [3] 0.064 | [4] 0.04 | pinometostat 0.006 | [5] 0.005 | [6] 0.096 | [7] -0.005 | [8] -0.143 | [9] 0.017 | [10] -0.037 | Nexturastat A 0.002 | vemurafenib -0.155 | [11] 0.016 | [12] -0.016 | givinostat -0.009 | barasertib 0.035

ECI2 (UniProt O75521)
inactive: IRAK-1-4 Inhibitor I 0.056 | ibrutinib -0.021 | [1] -0.025 | ralimetinib -0.051 | [2] -0.028 | [3] 0.07 | [4] -0.045 | pinometostat -0.019 | [5] -0.028 | [6] 0.03 | [7] -0.015 | [8] -0.026 | [9] 0.01 | [10] 0.014 | Nexturastat A -0.006 | vemurafenib -0.01 | [11] -0.01 | [12] 0 | givinostat 0.022 | barasertib 0.021

DNAJC10 (UniProt Q8IXB1)
inactive: IRAK-1-4 Inhibitor I -0.038 | ibrutinib 0.022 | [1] 0 | ralimetinib 0.134 | [2] 0.08 | [3] 0.044 | [4] -0.015 | pinometostat 0.049 | [5] -0.009 | [6] -0.011 | [7] 0.03 | [8] 0.016 | [9] -0.042 | [10] -0.023 | Nexturastat A 0.054 | vemurafenib -0.021 | [11] 0.035 | [12] 0.193 | givinostat 0.013 | barasertib -0.017

DNAJC2 (UniProt Q99543)
inactive: IRAK-1-4 Inhibitor I -0.078 | ibrutinib -0.046 | [1] -0.047 | ralimetinib 0.182 | [2] -0.003 | [3] -0.31 | [4] 0.073 | pinometostat 0.253 | [5] 0.034 | [6] -0.091 | [7] -0.029 | [8] 0.011 | [9] 0.03 | [10] 0.003 | Nexturastat A 0.197 | vemurafenib 0.051 | [11] 0.047 | [12] 0.094 | givinostat 0.158 | barasertib 0.131

DTL (UniProt Q9NZJ0)
inactive: IRAK-1-4 Inhibitor I -0.048 | ibrutinib -0.138 | [1] -0.112 | ralimetinib 0.012 | [2] -0.01 | [3] -0.114 | [4] -0.036 | pinometostat -0.003 | [5] -0.008 | [6] 0.036 | [7] -0.029 | [8] -0.046 | [9] 0.012 | [10] -0.051 | Nexturastat A 0.002 | vemurafenib -0.076 | [11] -0.059 | [12] 0.044 | givinostat -0.085 | barasertib -0.091

DNAJC12 (UniProt Q9UKB3)
inactive: IRAK-1-4 Inhibitor I 0.034 | ibrutinib -0.028 | [1] 0.009 | ralimetinib 0.103 | [2] 0.005 | [3] -0.008 | [4] -0.046 | pinometostat -0.04 | [5] 0.001 | [6] -0.032 | [7] 0.033 | [8] -0.003 | [9] 0.055 | [10] 0.025 | Nexturastat A -0.072 | vemurafenib -0.022 | [11] -0.017 | [12] -0.066 | givinostat -0.02 | barasertib 0.024

DNAJC11 (UniProt Q9NVH1)
inactive: IRAK-1-4 Inhibitor I 0.011 | ibrutinib 0.003 | [1] -0.039 | ralimetinib -0.081 | [2] -0.015 | [3] -0.053 | [4] -0.016 | pinometostat -0.028 | [5] -0.026 | [6] 0.064 | [7] -0.038 | [8] 0.018 | [9] 0.017 | [10] 0.007 | Nexturastat A -0.104 | vemurafenib 0.007 | [11] 0 | [12] -0.018 | givinostat -0.011 | barasertib -0.008

DRAP1 isoform 2 (UniProt Q14919)
inactive: IRAK-1-4 Inhibitor I 0.019 | ibrutinib 0.001 | [1] 0.012 | ralimetinib -0.01 | [2] 0.02 | [3] 0.049 | [4] 0.002 | pinometostat -0.036 | [5] -0.022 | [6] -0.03 | [7] -0.005 | [8] 0 | [9] 0.005 | [10] -0.004 | Nexturastat A -0.07 | vemurafenib -0.005 | [11] 0 | [12] -0.009 | givinostat -0.026 | barasertib 0

DNAJC17 (UniProt Q9NVM6)
inactive: IRAK-1-4 Inhibitor I -0.002 | ibrutinib -0.036 | [1] -0.009 | ralimetinib -0.007 | [2] 0 | [3] 0.07 | [4] -0.019 | pinometostat -0.025 | [5] -0.033 | [6] 0.061 | [7] -0.072 | [8] -0.069 | [9] -0.035 | [10] 0.06 | Nexturastat A -0.094 | vemurafenib -0.034 | [11] -0.179 | [12] 0.013 | givinostat 0.012 | barasertib 0.041

EBAG9 isoform 2 (UniProt O00559)
inactive: IRAK-1-4 Inhibitor I 0.009 | ibrutinib 0.045 | [1] 0.046 | ralimetinib 0.043 | [2] 0.063 | [3] 0.058 | [4] 0.08 | pinometostat -0.028 | [5] -0.006 | [6] 0.017 | [7] 0.03 | [8] -0.013 | [9] 0.019 | [10] 0.036 | Nexturastat A 0.045 | vemurafenib -0.022 | [11] 0.038 | [12] -0.02 | givinostat -0.026 | barasertib -0.028

DNPEP (UniProt Q9ULA0)
inactive: IRAK-1-4 Inhibitor I 0.009 | ibrutinib 0.017 | [1] 0.042 | ralimetinib -0.001 | [2] -0.027 | [3] 0.083 | [4] -0.027 | pinometostat -0.032 | [5] 0.016 | [6] 0.021 | [7] -0.029 | [8] 0.013 | [9] -0.016 | [10] 0.055 | Nexturastat A -0.06 | vemurafenib -0.01 | [11] 0.004 | [12] 0.003 | givinostat 0.007 | barasertib -0.016

DNAJB14 (UniProt Q8TBM8)
inactive: IRAK-1-4 Inhibitor I 0.083 | ibrutinib 0.015 | [1] -0.112 | ralimetinib -0.035 | [2] 0 | [3] 0.192 | [4] 0.119 | pinometostat -0.003 | [5] -0.065 | [6] 0.069 | [7] -0.049 | [8] -0.14 | [9] 0.041 | [10] 0.079 | Nexturastat A -0.104 | vemurafenib 0.016 | [11] 0.044 | [12] -0.011 | givinostat 0.205 | barasertib -0.029

DNAJC13 (UniProt O75165)
inactive: IRAK-1-4 Inhibitor I -0.042 | ibrutinib 0.005 | [1] 0 | ralimetinib 0.096 | [2] -0.023 | [3] 0.03 | [4] 0.024 | pinometostat 0.188 | [5] 0.038 | [6] 0.039 | [7] 0.009 | [8] 0.005 | [9] -0.032 | [10] 0.044 | Nexturastat A 0.033 | vemurafenib -0.086 | [11] 0.037 | [12] 0.038 | givinostat 0.031 | barasertib 0.06

EDEM3 (UniProt Q9BZQ6)
inactive: IRAK-1-4 Inhibitor I -0.057 | ibrutinib -0.032 | [1] 0.028 | ralimetinib 0.036 | [2] 0.031 | [3] -0.055 | [4] -0.015 | pinometostat 0.03 | [5] 0.041 | [6] 0.034 | [7] -0.009 | [8] 0.029 | [9] -0.042 | [10] -0.067 | Nexturastat A 0.076 | vemurafenib -0.098 | [11] -0.077 | [12] 0.024 | givinostat 0.009 | barasertib -0.01
